Assay results published in patent US20220041754A1.
No constants are given. Whether binding was seen depends on the method and setting. Some results given as binding are weak or reduced against the parent protein; the word gives no strength.

Biological target: anti-CD70 CAR of SEQ ID NO: 6
Assay: flow cytometry on anti-CD70 CAR T cells

B1: recombinant 20H05-2D09 antibody (antibody, mouse IgG1, kappa, V domains shown)
VH: QIQLVQSGPELKKPGETVKISCKASGYTFTNYGMHWVKQAPGKVLKWMGWINTYSGVPTYPDDFKGRFAFSLETSASTASLQINNLKNEDTATYFCATERLRGWFPFWGQGTLVTVSA
VL: QIVLTQSPAIMSASPGEKVTISCSASSSVSYMYWYQQKPGSSPKPWIYRTSNLASGVPARFSGSGSGTSYSLTISSMEAEDAATYYCQQYHSYPPTFGGGTKLEIKR
- binding: binds
